PubChem BioAssay AID1224830 – NIAID, 2016
In all, the deposit lists about 18,000 reagents; this is a random part of them. In the full data, about 2,900 (16%) were called active. 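Calls are made per well; low scores hint the gene aids the LPS response, high scores that it dampens it.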 Repeated entries: four replicate wells of each siRNA pool.

- Assay: 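Genes whose knock-down alters the TNF-alpha reporter response to LPS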 (primary screen)
- Cells: human THP-1 monocytic leukaemia cells, TNF dual-luciferase reporter clone, PMA-differentiated to macrophage-like cells
- Reagents: siRNA pool against human genes, 50 nM
- Timing: LPS for 4 h, given about 3 days after siRNA transfection
- Conditions: bacterial LPS (TLR4 ligand), 10 ng/ml
- Measurement: 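Ratio of firefly to renilla light, scaled to the plate median and expressed as a robust z-score per replicate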
- Reading the numbers: TNF reporter robust z-score: higher = stronger TNF reporter response to LPS
- Active means: 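a well is active when its z-score exceeds 2.8 or falls below -1.5; control wells carry no call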

gene	TNF reporter robust z-score	Outcome
UBASH3A (ubiquitin associated and SH3 domain containing A)	2.04	inactive
UBASH3A (ubiquitin associated and SH3 domain containing A)	3.43	active
UBASH3A (ubiquitin associated and SH3 domain containing A)	3.78	active
UBASH3A (ubiquitin associated and SH3 domain containing A)	2.9	active
SLC26A11	-1.11	inactive
SLC26A11	-0.65	inactive
SLC26A11	-0.78	inactive
SLC26A11	-0.84	inactive
GTF2B (general transcription factor IIB)	0.67	inactive
GTF2B (general transcription factor IIB)	1.07	inactive
GTF2B (general transcription factor IIB)	0.65	inactive
GTF2B (general transcription factor IIB)	1.25	inactive
DROSHA (drosha ribonuclease III)	-1.29	inactive
DROSHA (drosha ribonuclease III)	-0.1	inactive
DROSHA (drosha ribonuclease III)	-0.16	inactive
DROSHA (drosha ribonuclease III)	-0.71	inactive
HACD2 (3-hydroxyacyl-CoA dehydratase 2)	0.33	inactive
HACD2 (3-hydroxyacyl-CoA dehydratase 2)	1.15	inactive
HACD2 (3-hydroxyacyl-CoA dehydratase 2)	0.44	inactive
HACD2 (3-hydroxyacyl-CoA dehydratase 2)	0.1	inactive
LIPN (lipase family member N)	-0.47	inactive
LIPN (lipase family member N)	-0.31	inactive
LIPN (lipase family member N)	-0.55	inactive
LIPN (lipase family member N)	-0.37	inactive
PRPF6 (pre-mRNA processing factor 6)	-0.68	inactive
PRPF6 (pre-mRNA processing factor 6)	-0.18	inactive
PRPF6 (pre-mRNA processing factor 6)	-1.3	inactive
PRPF6 (pre-mRNA processing factor 6)	-0.45	inactive
SCMH1 (Scm polycomb group protein homolog 1)	-0.29	inactive
SCMH1 (Scm polycomb group protein homolog 1)	0.02	inactive
SCMH1 (Scm polycomb group protein homolog 1)	-0.23	inactive
SCMH1 (Scm polycomb group protein homolog 1)	-0.01	inactive
CACNG7 (calcium voltage-gated channel auxiliary subunit gamma 7)	-0.03	inactive
CACNG7 (calcium voltage-gated channel auxiliary subunit gamma 7)	0.43	inactive
CACNG7 (calcium voltage-gated channel auxiliary subunit gamma 7)	2.05	inactive
CACNG7 (calcium voltage-gated channel auxiliary subunit gamma 7)	0.9	inactive
ATP1B1 (ATPase Na+/K+ transporting subunit beta 1)	0.37	inactive
ATP1B1 (ATPase Na+/K+ transporting subunit beta 1)	0.56	inactive
ATP1B1 (ATPase Na+/K+ transporting subunit beta 1)	-0.06	inactive
ATP1B1 (ATPase Na+/K+ transporting subunit beta 1)	1.39	inactive
MINPP1 (multiple inositol-polyphosphate phosphatase 1)	-1.25	inactive
MINPP1 (multiple inositol-polyphosphate phosphatase 1)	0.16	inactive
MINPP1 (multiple inositol-polyphosphate phosphatase 1)	-0.8	inactive
MINPP1 (multiple inositol-polyphosphate phosphatase 1)	0.39	inactive
XKR5 (XK related 5)	0.01	inactive
XKR5 (XK related 5)	0.56	inactive
XKR5 (XK related 5)	-0.73	inactive
XKR5 (XK related 5)	-0.51	inactive
ADGRG6 (adhesion G protein-coupled receptor G6)	-0.84	inactive
ADGRG6 (adhesion G protein-coupled receptor G6)	-0.67	inactive
ADGRG6 (adhesion G protein-coupled receptor G6)	-0.36	inactive
ADGRG6 (adhesion G protein-coupled receptor G6)	-0.49	inactive
TRIT1 (tRNA isopentenyltransferase 1)	0.18	inactive
TRIT1 (tRNA isopentenyltransferase 1)	-0.25	inactive
TRIT1 (tRNA isopentenyltransferase 1)	0.05	inactive
TRIT1 (tRNA isopentenyltransferase 1)	0.03	inactive
ATG4D (autophagy related 4D cysteine peptidase)	0.66	inactive
ATG4D (autophagy related 4D cysteine peptidase)	1.35	inactive
ATG4D (autophagy related 4D cysteine peptidase)	0.77	inactive
ATG4D (autophagy related 4D cysteine peptidase)	1.39	inactive
SLC26A10P	1.66	inactive
SLC26A10P	2.65	inactive
SLC26A10P	2.56	inactive
SLC26A10P	3.67	active
MKS1 (MKS transition zone complex subunit 1)	-0.04	inactive
MKS1 (MKS transition zone complex subunit 1)	2.88	active
MKS1 (MKS transition zone complex subunit 1)	0.68	inactive
MKS1 (MKS transition zone complex subunit 1)	0.97	inactive
SLIT2 (slit guidance ligand 2)	0.32	inactive
SLIT2 (slit guidance ligand 2)	-0.33	inactive
SLIT2 (slit guidance ligand 2)	-0.05	inactive
SLIT2 (slit guidance ligand 2)	1.29	inactive
RP9 (RP9 pre-mRNA splicing factor)	-0.79	inactive
RP9 (RP9 pre-mRNA splicing factor)	-0.32	inactive
RP9 (RP9 pre-mRNA splicing factor)	-0.08	inactive
RP9 (RP9 pre-mRNA splicing factor)	-0.5	inactive
A2ML1 (alpha-2-macroglobulin like 1)	-0.5	inactive
A2ML1 (alpha-2-macroglobulin like 1)	0.62	inactive
A2ML1 (alpha-2-macroglobulin like 1)	-0.75	inactive
A2ML1 (alpha-2-macroglobulin like 1)	0.24	inactive
COQ4 (coenzyme Q4)	1.96	inactive
COQ4 (coenzyme Q4)	0.91	inactive
COQ4 (coenzyme Q4)	-0.04	inactive
COQ4 (coenzyme Q4)	0.44	inactive
THAP7 (THAP domain containing 7)	-1.52	active
THAP7 (THAP domain containing 7)	-0.78	inactive
THAP7 (THAP domain containing 7)	-1.29	inactive
THAP7 (THAP domain containing 7)	-0.49	inactive
LYPD6 (LY6/PLAUR domain containing 6)	1.07	inactive
LYPD6 (LY6/PLAUR domain containing 6)	0.73	inactive
LYPD6 (LY6/PLAUR domain containing 6)	0.72	inactive
LYPD6 (LY6/PLAUR domain containing 6)	0.58	inactive
TYR (tyrosinase)	-2.11	active
TYR (tyrosinase)	-1.53	active
TYR (tyrosinase)	-1.36	inactive
TYR (tyrosinase)	-0.91	inactive
MEF2A (myocyte enhancer factor 2A)	1.04	inactive
MEF2A (myocyte enhancer factor 2A)	2.49	inactive
MEF2A (myocyte enhancer factor 2A)	3.67	active
MEF2A (myocyte enhancer factor 2A)	4.06	active
UBXN6 (UBX domain protein 6)	3.11	active
UBXN6 (UBX domain protein 6)	2.53	inactive
UBXN6 (UBX domain protein 6)	2.71	inactive
UBXN6 (UBX domain protein 6)	1.69	inactive
SMURF2 (SMAD specific E3 ubiquitin protein ligase 2)	-0.98	inactive
SMURF2 (SMAD specific E3 ubiquitin protein ligase 2)	-0.43	inactive
SMURF2 (SMAD specific E3 ubiquitin protein ligase 2)	1.04	inactive
SMURF2 (SMAD specific E3 ubiquitin protein ligase 2)	-0.52	inactive
ZFP28 (ZFP28 zinc finger protein)	0.75	inactive
ZFP28 (ZFP28 zinc finger protein)	-0.35	inactive
ZFP28 (ZFP28 zinc finger protein)	-0.5	inactive
ZFP28 (ZFP28 zinc finger protein)	0.37	inactive
